Reference: PubChem BioAssay AID1347423 (Functional Genomics Laboratory (NCATS/FGL), 2020)
Screen size: about 52,000 sequences; about 210 (0.4%) were called active.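 The calls were made as follows: active = gene whose silencing raises cell survival under the drug, median off-target-corrected z-score across its silencing RNAs 2 or more; inactive = the rest.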 The list shows a part of the results.

Experiment: Resistance to Poly (ADP-Ribose) Polymerase inhibitor: Gene Identification via Genome-wide siRNA Screen
Conditions: mouse BRCA2 R2336H ES cells, olaparib, CellTiter-Glo viability; hits give high values
Procedure, shortened: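 Mouse BRCA2 R2336H ES cells were reverse-transfected with siRNA (20 nM final), treated at 48 h with 500 nM olaparib, and read by CellTiter-Glo after 72 h. Scores: MAD-based z per siRNA, median per gene, seed off-target correction.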

Row | Sequence | z-score
1 | GCAUCUCUUACUAAGAUUATT against Anxa4 | inactive: -0.206
2 | CCUGGUAAAAGACUGGGCUTT against 1700010H15Rik | inactive: 0.505
3 | GCCCACUGUAUGAAUUGUATT against Plk1 | inactive: -1.95
4 | GGCUUUGCAGGAAUACAUGTT against C530028I08Rik | inactive: -0.684
5 | GGGCUCUUCAUUCAGACUCTT against Zfp513 | inactive: 0.174
6 | CCUGGCAGAGCAUUAUCUATT against AV028368 | inactive: -0.26
7 | CGAAUCAGUAGAUUUGACATT against Ppp1r9a | inactive: 0.768
8 | GGUAUUUUGACAGAGUCGATT against Add1 | inactive: 0.616
9 | GGAGAUCAAAUGGAUCGGCTT against Tfdp1 | inactive: 0.502
10 | CGUGUGUCCGAAACAGCUATT against Cog8 | inactive: -0.819
11 | GGCCUGGUCUUAGAAAUAGTT against Dock3 | inactive: 0.9
12 | CGAAGUGAAGAUUUACAGCTT against Gm67 | inactive: 0.159
13 | CGAAAUAGGUAUUAAGGGUTT against GA_x5J8B7TQSKC-412-5 | inactive: -0.0678
14 | GGACAUUUGAUAUUGAAGATT against B3gnt1 | inactive: 0.555
15 | GGAAAUGUGUGUUUCUUGCTT against Slco1a6 | inactive: 0.356
16 | GCCGUGUCCUUGCAUAACUTT against 4933400F01Rik | inactive: 0.844
17 | AAGACUUGAUCUGAGCAGATT against BC065151 | inactive: -0.524
18 | GGUGCUAUGGCUGUGCAUATT against Doxl2 | inactive: 0.748
19 | GACUGAACAUAGCCUUCACTT against Olfr677 | inactive: -0.791
20 | GGUAAAGAGUAUGACAAUCTT against 5730538E15Rik | inactive: 0.583
21 | GGAGUGUGACUCUCAGAAATT against Adar | inactive: 1.66
22 | GCCAGUAAACGGAGCUACCTT against Nmt1 | inactive: 0.129
23 | GGCACUUAUUUCUGUGUUCTT against B230359F08Rik | inactive: -0.189
24 | CCACAGUGAUUACGAUUAUTT against Mcpt2 | inactive: 0.474
25 | GUUGGUAGAUUCAGUUUUCTT against V1rj2 | inactive: 0.201
26 | GGUGAGAAGCAAACUUUCATT against Ggps1 | inactive: -1.66

A run of entries of the results above, for reference:
Row | Sequence | z-score
15 | GGAAAUGUGUGUUUCUUGCTT against Slco1a6 | inactive: 0.356
16 | GCCGUGUCCUUGCAUAACUTT against 4933400F01Rik | inactive: 0.844
17 | AAGACUUGAUCUGAGCAGATT against BC065151 | inactive: -0.524
18 | GGUGCUAUGGCUGUGCAUATT against Doxl2 | inactive: 0.748
19 | GACUGAACAUAGCCUUCACTT against Olfr677 | inactive: -0.791

Additional results:

Row | Sequence | z-score
27 | GGCGUGCACACUAAACUGGTT against Nisch | inactive: 1.21
28 | GGCCAGACACAGGUAGACATT against BC028440 | inactive: -0.7
29 | GGUCUAUCCAGGAAAAUGGTT against Uxs1 | inactive: 0.621
30 | GGUACAGCGGAGAUGUACATT against Nqo2 | inactive: 1.07
31 | GGCUCAAGCACAUAGGAUCTT against Pdlim4 | inactive: 1.46
32 | CCAACUCUGUUACAUUAUGTT against Fshprh1 | inactive: 0.377
33 | GGCAGAGAAAUGGGCAAUGTT against Gpr81 | inactive: 0.277
34 | AGGUUAUUAACAGAUCUCUTT against Olfr1112 | inactive: 0.151
35 | GGUGGACUCCAGAGUUUAUTT against Polr2h | inactive: -2.57
36 | GGCUGUAAUGACGAAUACATT against C330023M02Rik | inactive: -1.02
37 | GGGACAACGCACUCCAACATT against 1810024B03Rik | inactive: 1.17
38 | GGCCUAAUUAGUUACUUCUTT against A630035I11Rik | inactive: 2.92
39 | GGGUUUCCAGUACCUCAAUTT against Serpina6 | inactive: -0.847
40 | GGAACCACAUCUCAGCAGGTT against Hsn2 | inactive: 0.189
41 | CCGGCUAGAAACCGUGAAUTT against 9530051K01Rik | inactive: -0.591
42 | GGAACAUUGUCUUAAGCAATT against Echdc3 | inactive: -0.41
43 | GGCUGACUCUUAGAAAGGGTT against Siah1a | inactive: -0.961
44 | CCAAAUAGCAGUAUCAGGATT against D430028G21Rik | inactive: -0.344
45 | GGAAGUUAAUGGGUAAAGUTT against Olfr365 | inactive: -0.192
46 | GGAAUAUCACUUCCAUACATT against Ntrk3 | inactive: 1.54
47 | GGCAGAAUUCUUGAGAGAUTT against 1700024D23Rik | inactive: 1.36
48 | GGCCAAACAAGACAUUCAGTT against Slmap | inactive: -0.476
49 | CCAGAAAACCAAACAACAGTT against Olfr1357 | inactive: -0.522
50 | GGGCUGAAAAAGGAACUGCTT against 0610037D15Rik | inactive: 0.309
51 | GGAUAAAGGCCUGAGCGAUTT against D8Ertd594e | inactive: 0.581
52 | CGAGCUUGCUAUCGGGAAGTT against Defb7 | inactive: -1.54

Row | Sequence | z-score
53 | GGUCAGUGGAGCUCUCUAUTT against AI429612 | inactive: 1.61
54 | GGCAAAGGCUAUCGCUCACTT against Smpd2 | inactive: 0.456
55 | CGGCACCUACUUCAUCUAUTT against Eda | inactive: 0.81
56 | CCUAAAUCCUCUAUUUUGGTT against Fmn2 | inactive: 0.0509
57 | UCUUAUGCCUUGGUGCUCATT against Olfr746 | inactive: -0.337
58 | CCUGCUCAUUGCAGUGACGTT against Olfr1243 | inactive: 0.695
59 | GGACAAGCAACUGAAUGAGTT against D930010J01Rik | inactive: -0.286
60 | GGUUUGAUUAUACCUAUCATT against Odz2 | inactive: -1.79
61 | GGAUGGAACAUAUGAUUAGTT against V1rf1 | inactive: -0.109
62 | GGUUCAGCUGGUCCUAUCUTT against Olfr1099 | inactive: 0.067
63 | GCAUUUGUAGUUAUUUCACTT against C1d | inactive: 0.875
64 | GGAAGAGUGUACCAGUGUUTT against 2610001E17Rik | inactive: 0.78
65 | GGACUACAUAAGGAAGGUUTT against 4930527D15Rik | inactive: -0.0493
66 | GGGAAAGAUAAUGGCCUGCTT against Tnfrsf23 | inactive: -0.849
67 | CCAGCUAAACUCUGUAAAATT against Zfp639 | inactive: -1.21
68 | ACCAGUAUGGCUUAAAGACTT against Bglap-rs1 | inactive: 0.974
69 | GGUUCUGGGACUUAACAAATT against Rgs12 | inactive: -0.39
70 | GGAGCUGGAAAGUUACCGATT against Dhrs6 | inactive: 1
71 | GCUGGAUCACCGUUAUAAUTT against Wdr17 | inactive: 0.178
72 | CGAUUCCAUUCUUAACAUATT against Crlf3 | inactive: 0.348
73 | GGGUACCCUAGCUCUGUUATT against Timp2 | inactive: -0.165
74 | GGGAUUGCAUGGUUAAACUTT against 4921501M20Rik | inactive: -0.607
75 | CCCUAUAAAGAGAAAUUGGTT against Gm1008 | inactive: 1
76 | GGAAAGAGUAAUAAUUGUCTT against Cyp1b1 | inactive: -0.222
77 | GGAGAACAACAGUAAUUACTT against Reps2 | inactive: -2.31
78 | GGACCUGCAUUCUAAAUCATT against Gm1960 | inactive: 1.28

Row | Sequence | z-score
79 | GGCUAAAGUUGACAGCCAATT against Cd52 | inactive: -0.759
80 | GGGACCAAUGUUCCAGGAATT against Ms4a4b | inactive: 0.375
81 | GGCUAUGAGGACUAUCUGUTT against Dmbt1 | inactive: -0.181
82 | GGAAUUCUAUGGUCUAACGTT against Usp46 | inactive: 2.95
83 | GUCCCAGUACCUCUUUCUUTT against V1rc17 | inactive: -0.448
84 | CGUUGCUUCUCCAUUGAGCTT against Cdh24 | inactive: 0.0418
85 | GGUAUCAGUACUUUUUGCATT against Ptpn4 | inactive: -0.911
86 | GGAAGUGGCCCUUAAAAGGTT against Osbpl3 | inactive: -0.324
87 | GGAAAAUUACAGAAUUGGATT against Dnali1 | inactive: 1.21
88 | GGACAUGGACAUCCUGAACTT against Slc29a3 | inactive: 0.142
89 | GGUGCCUCAGAGUAAAUAUTT against Cdk2ap1 | inactive: -2.74
90 | GGCAAACACUACGGCAUCATT against Mrpl27 | inactive: 0.668
91 | GUAUUUUACACUCUUGUGGTT against Olfr898 | inactive: -0.721
92 | GCUAUGCUUUUUUGCUACUTT against Olfr972 | inactive: -0.496
93 | CCCAGCUCACACAAACUCATT against LOC434377 | inactive: -0.485
94 | CCAGCAGCCUAAAAGCAGUTT against Ppard | inactive: 0.798
95 | GGGACCAUCUUCCUGAUUGTT against Cdh22 | inactive: -0.202
96 | GCUAGAAUUCAUGUUUCGUTT against Dgkg | inactive: 1.3
97 | CGAGAACCAUAUCUCACUUTT against Ptpn2 | inactive: 0.575
98 | GCUGGUACGCCCACCAUAUTT against Foxi1 | inactive: 0.18
99 | GGAGAAUCUGGACAAUGACTT against Dvl3 | inactive: -1.69
100 | GCCAACAGUACUUUGUUAATT against Chordc1 | inactive: -0.278
101 | GGCCGCUUUUAUUUAUAAUTT against 4732460C16Rik | inactive: 0.984
102 | GGUUUUCUGGUCCAUUAUATT against Olfr741 | inactive: 2.4
103 | GGAGGCUGAGUAUUGGCUUTT against Pi4k2b | inactive: 0.48
104 | CGAUACACUGGUGCCCUAUTT against AV028368 | inactive: -1.73

3 entries from above in another layout:
Row	Sequence	z-score
12	CGAAGUGAAGAUUUACAGCTT against Gm67	inactive: 0.159
15	GGAAAUGUGUGUUUCUUGCTT against Slco1a6	inactive: 0.356
38	GGCCUAAUUAGUUACUUCUTT against A630035I11Rik	inactive: 2.92
